In US20200317791A1:
Results are given in words; binding and its absence hold for the method and conditions named. For part of these data: A result given as binding can be weak or reduced; the word gives no strength.

Experiments:
[1] = molecular target: B50,Bw6_B*50:01 (human); test: LABScreen beads
[2] = molecular target: B47,Bw4_B*47:01 (human); test: LABScreen beads
[3] = molecular target: B61,Bw6_B*40:02 (human); test: LABScreen beads
[4] = molecular target: B62,Bw6_B*15:01 (human); test: LABScreen beads
[5] = molecular target: B71,Bw6_B*15:10 (human); test: LABScreen beads
[6] = molecular target: B38,Bw4_B*38:01 (human); test: LABScreen beads, 10 µg/ml antibody
[7] = molecular target: B27,Bw6_B*27:08 (human); test: LABScreen beads, 10 µg/ml antibody
[8] = molecular target: Cw10_C*03:02 (human); test: LABScreen beads, 10 µg/ml antibody
[9] = molecular target: Cw17_C*17:01 (human); test: LABScreen beads, 10 µg/ml antibody
[10] = molecular target: Cw8_C*08:01 (human); test: LABScreen beads, 10 µg/ml antibody
[11] = molecular target: B27,Bw4_B*27:05 (human), B*27:0; test: LABScreen beads, 10 µg/ml antibody
[12] = molecular target: Cw18_C*18:02 (human); test: LABScreen beads, 10 µg/ml antibody
[13] = molecular target: B53,Bw4_B*53:01 (human); test: LABScreen beads, 10 µg/ml antibody
[14] = molecular target: Cw10_C*03:04 (human); test: LABScreen beads, 10 µg/ml antibody
[15] = molecular target: Cw9_C*03:03 (human); test: LABScreen beads, 10 µg/ml antibody
[16] = molecular target: Cw7_C*07:02 (human), C*07:0; test: LABScreen beads, 10 µg/ml antibody
[17] = molecular target: B78,Bw6_B*78:01 (human); test: LABScreen beads, 10 µg/ml antibody
[18] = molecular target: B51,Bw4_B*51:02 (human); test: LABScreen beads, 10 µg/ml antibody
[19] = molecular target: B37,Bw4_B*37:01 (human); test: LABScreen beads, 10 µg/ml antibody
[20] = molecular target: Cw4_C*04:01 (human); test: LABScreen beads, 10 µg/ml antibody
[21] = molecular target: B75,Bw6_B*15:02 (human); test: LABScreen beads, 10 µg/ml antibody
[22] = molecular target: B8,Bw6_B*08:01 (human); test: LABScreen beads, 10 µg/ml antibody
[23] = molecular target: B13,Bw4_B*13:02 (human); test: LABScreen beads, 10 µg/ml antibody
[24] = molecular target: B64,Bw6_B*14:01 (human); test: LABScreen beads, 10 µg/ml antibody
[25] = molecular target: B35,Bw6_B*35:01 (human); test: LABScreen beads, 10 µg/ml antibody
[26] = molecular target: B63,Bw4_B*15:16 (human); test: LABScreen beads, 10 µg/ml antibody
[27] = molecular target: B75,Bw6_B*15:11 (human); test: LABScreen beads, 10 µg/ml antibody
[28] = molecular target: Cw2_C*02:02 (human); test: LABScreen beads, 10 µg/ml antibody
[29] = molecular target: B44,Bw4_B*44:03 (human); test: LABScreen beads, 10 µg/ml antibody
[30] = molecular target: B77,Bw4_B*15:13 (human); test: LABScreen beads, 10 µg/ml antibody
[31] = molecular target: Cw5_C*05:01 (human); test: LABScreen beads, 10 µg/ml antibody
[32] = molecular target: B55,Bw6_B*55:01 (human); test: LABScreen beads, 10 µg/ml antibody
[33] = molecular target: Cw6_C*06:02 (human), C*06:0; test: LABScreen beads, 10 µg/ml antibody
[34] = molecular target: B57,Bw4_B*57:01 (human); test: LABScreen beads, 10 µg/ml antibody
[35] = molecular target: B52,Bw4_B*52:01 (human); test: LABScreen beads, 10 µg/ml antibody
[36] = molecular target: Cw1_C*01:02 (human); test: LABScreen beads, 10 µg/ml antibody
[37] = molecular target: B56,Bw6_B*56:01 (human); test: LABScreen beads, 10 µg/ml antibody
[38] = molecular target: B18,Bw6_B*18:01 (human); test: LABScreen beads, 10 µg/ml antibody
[39] = molecular target: B54,Bw6_B*54:01 (human); test: LABScreen beads, 10 µg/ml antibody
[40] = molecular target: B65,Bw6_B*14:02 (human); test: LABScreen beads, 10 µg/ml antibody
[41] = molecular target: Cw16_C*16:01 (human); test: LABScreen beads, 10 µg/ml antibody
[42] = molecular target: Cw14_C*14:02 (human); test: LABScreen beads, 10 µg/ml antibody
[43] = molecular target: B49,Bw4_B*49:01 (human); test: LABScreen beads, 10 µg/ml antibody
[44] = molecular target: B51,Bw4_B*51:01 (human); test: LABScreen beads, 10 µg/ml antibody
[45] = molecular target: B67,Bw6_B*67:01 (human); test: LABScreen beads, 10 µg/ml antibody
[46] = molecular target: B61,Bw6_B*40:06 (human); test: LABScreen beads, 10 µg/ml antibody
[47] = molecular target: Cw12_C*12:03 (human); test: LABScreen beads, 10 µg/ml antibody
[48] = molecular target: B59,Bw4_B*59:01 (human); test: LABScreen beads, 10 µg/ml antibody
[49] = molecular target: Cw15_C*15:02 (human); test: LABScreen beads, 10 µg/ml antibody
[50] = molecular target: B58,Bw4_B*58:01 (human); test: LABScreen beads, 10 µg/ml antibody
[51] = molecular target: B57,Bw4_B*57:03 (human); test: LABScreen beads, 10 µg/ml antibody

B1: CW6B228 (antibody, V domains shown)
VH: QVQLQESGPGLVKPSETLSLTCTVSGNSIRSYYWSWIRQPAGKGLEWIGRIYISGNTNYNPSLKSRVTMSIDTSKNQFSLKLSSVTAADTAVYYCARLSGIDAFDIWGQGTMVTVSS
VL: DIQMTQSPSSLSASVGDRVTITCQASQDINNYLNWYQQKPGKAPKLLIYDASSLETGVPSRFSGSGSGTDFTFTISSLQPEDFATYYCQQYDDLPITFGQGTRLEIK
binding [1]: no binding (tested: 10 µg/ml)
binding [2]: no binding (tested: 10 µg/ml)
binding [3]: no binding (tested: 10 µg/ml)
binding [4]: no binding (tested: 10 µg/ml)
binding [5]: no binding (tested: 10 µg/ml)
binding [6]: binds
binding [7]: binds
binding [8]: binds
binding [9]: binds
binding [10]: binds
binding [11]: binds
binding [12]: binds
binding [13]: binds
binding [14]: binds
binding [15]: binds
binding [16]: binds
binding [17]: binds
binding [18]: binds
binding [19]: binds
binding [20]: binds
binding [21]: binds
binding [22]: binds
binding [23]: binds
binding [24]: binds
binding [25]: binds
binding [26]: binds
binding [27]: binds
binding [28]: binds
binding [29]: binds
binding [30]: binds
binding [31]: binds
binding [32]: binds
binding [33]: binds
binding [34]: binds
binding [35]: binds
binding [36]: binds
binding [37]: binds
binding [38]: binds
binding [39]: binds
binding [40]: binds
binding [41]: binds
binding [42]: binds
binding [43]: binds
binding [44]: binds
binding [45]: binds
binding [46]: binds
binding [47]: binds
binding [48]: binds
binding [49]: binds
binding [50]: binds
binding [51]: binds
